Data from article PMC12541429.
No constants are given. Whether binding was seen depends on the method and setting. Binding seen in cells or lysates may run through a third protein. Here binding means that the protein was enriched with, or labelled near, the bait; the list need not be complete. Tags and fused reporters may be left off the sequences shown.

Molecular target: T1, GFP-EFCAB10 (EF-hand calcium-binding domain protein 10) expressed in mEPCs (mouse) (UniProt Q9D581)
T1 sequence: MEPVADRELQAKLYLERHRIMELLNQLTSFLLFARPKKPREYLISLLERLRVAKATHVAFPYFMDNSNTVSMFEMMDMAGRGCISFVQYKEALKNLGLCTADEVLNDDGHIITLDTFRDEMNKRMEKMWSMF
Assay: affinity purification with mass spectrometry; immunoprecipitation of GFP-EFCAB10 from lentivirus-infected cultured mEPCs, followed by mass spectrometry (IP-MS)

Binder	binding
AK8 (adenylate kinase 8), endogenous in mEPCs (protein, UniProt Q32M07 1-479) MDATTAPHRIPPEMPQYGEDYYIFEMMQNMLEQLLIHQPEDPISFMITHLRRNNDNVPKVVILGPPASGKTTIAMWLCKHLNSNLITKESLLEREFSRLSVEAKSYYQVYKKIPNSILVSLVQERLNEDDCLRKGWILDGIPERREQALMIQTLGLAPKHVIVLNAPDTVLIERNVGKRIDPVTGEIYHTTFDWPPEPEIQNRLRQPEGISEIETAKKLLEYHRHIIRILPSYPKILKTISSDQPCVDVFYQALTYVQSGHRCNAPFTPKVLLCGPLGSGKRLQATLLAQKYGLVNISCGQLLKEAVAAKSSFGELIQPFFEKRMTVPDSIITKVLADRMEQQDCIQKGWVLHGFPRDLDQARMLNSMGYNPNRVFFLSVPLDSILERLTLRRTDPVTGERFHLMYKPPPTIEVQVRLLQNPKDSEEYIKLQTDLFYRNSGDLEQYYDRAIIVNGDQDPYTVFEYIESGIINPLPRKVT	binds
radial spoke head protein 4 homolog A (RSPH4A), endogenous in mEPCs (protein, UniProt Q8BYM7 1-716) MENSTSLKQEKENQEPGEAERLWQGESDVSPQEPGPPSPEYREEEQRTDTEPAPRMSPSWSHQSRVSLSTGDLTAGPEVSSSPPPPPLQFHSTPLNTETTQDPVAASPTEKTANGIADTGTPYSDPWESSSAAKQSTSHYTSHAEESTFPQSQTPQPDLCGLRDASRNKSKHKGLRFDLLQEEGSDSNCDPDQPEVGASEAAQSMLEVAIQNAKAYLLSTSSKSGLNLYDHLSKVLTKILDERPADAVDIIENISQDVKMAHFNKKLDTLHNEYEMLPAYEIAETQKALFLQGHLEGADSELEEEMAESSLPNVMESAYYFEQAGVGLGTDETYRVFLALKQLTDTHPIQRCRFWGKILGLEMNYIVAEVEFRDGEDEEEVEEEGIAEERDNGGSEAGEEEEEELPKSLYKAPQVIPKEESRTGANKYVYFVCNVPGRPWVRLPSVTPAQIVTARKIKKFFTGRLDAAVISYPPFPGNESNYLRAQIARISAGTHVSPLGFYQFGEEEGEEEEVEGGRDSYEENPDFEGIQVIDLVESLSNWVHHVQYILPQGRCNWFNPIQKDEDEEEEEEEDEEKGEEPDYIEQEVGPPLLTPISEDLGIQNIPSWTTQLSSNLIPQYAIAVLRSNLWPGAYAFSNGKKFENFYIGWGHKYCVENYTPPSPPPVYQEYPSGPEITEMNDPSVEEEQAFRMTQEPVALSTEENEGTEDEDEDDED	binds
radial spoke head protein 3 homolog B (RSPH3B), endogenous in mEPCs (protein, UniProt Q9DA80 1-389) MTDRNPRTAEASGLYTYSSRPRAVACQRRRHRDSILQPVEEPMSYGNIMYDRRVIRGNTYALPTGQVPGQPDPLELQRQQQARRRALARKRAQEQLKPRTPEPVEGRKHVDIQTELYLEEIADRIVEVDMECQTDAFLDRPPTPLFIPAKTGKDVATQILGGELFDFDLEVKPMLEVLVGKTIEQSLLEVMEEEELANLRARQYAYEEIRNVELAEVQRLEEQERRHREEKERRKKQQWEIVHKRNETLQKISALIFARQYLANLLPSVFDKLRNSGFFYDPIERDIEVGFLPWLMNEVEKSMEHSMVGRTVLDMLIRDVVERRINDYEHKEAMPPGQKTNVINGPNTVTDPSVTTLHTQKPVLDRVSSQPAPSQERKPVEEGGHLMAE	binds
